A short description of series [1]: Charcoal meal test (gastrointestinal transit). The note with it: B6, mouse, in vivo, sc. The protocol: B6 mice were fasted for at least 16 h before the study with free access to water. In a charcoal meal test, various doses of drugs were administered to the mice 30 min prior to the administration of an aqueous activated charcoal suspension (10% activated charcoal+5% gum Arabic; 0.3 mL). After 30 min, the mice were euthanized by intraperitoneal administration of a ketamine/xylazine cocktail (Sigma) followed by cervical dislocation and the total length of migration of the charcoal meal was measured from the pylorus to the ileocecal junction of the small intestine. The length of the intestine from pylorus to the caecum and the distance traveled by the charcoal were measured. The migration index was expressed as percentage of the distance traveled by the peristaltic charcoal meal relative to the total length of the small intestine, calculated according to the following formula. % of Gastrointestinal transit=Distance Travelled by Charcoal Meal/Full Length of the Small Intestine×100%
Gastrointestinal propulsion was calculated as the percentage of the distance travelled by the charcoal meal relative to the total length of the small intestine, to control for individual variations. The percentage inhibition relative to the control was also calculated as: % Gastrointestinal Inhibition (GI)=(Control group−Drug-treated group)/Control group×100% […]

The subject of series [2] is wild-type C57BL/6 (B6) mice. The experiment in a line: Tail flick test (acute thermal pain). The settings on record: Mus musculus, sc; single subcutaneous injection; read-out: ED50 of antinociception. The series is classed as in vivo.
Series [3] deals with mice. The series can be described thus: Tolerance and cross-tolerance, tail-flick test after 5 days twice-daily treatment. The settings on record: day 6, equianalgesic dose. The series is classed as in vivo, mouse.

The structures appear in SMILES notation.

`CN1CC[C@]23c4c5ccc(O)c4O[C@H]2[C@@H](O)C=C[C@H]3[C@H]1C5.Cl` [morphine, Morphine hydrochloride, reference compound] returned an ED50 at 60 min in series [1] of 1.8 mg/kg. Moreover, the ED50 in series [2] was 2.4 mg/kg. Besides, in series [3], the “antinociceptive effects on challenge in Compound 67-tolerant mice” value was “rescued” and the “antinociceptive effects on challenge in morphine-tolerant mice” value is “not observed”.

(Values after US10597378B2 (priority 2017, dated 2020).)
